In publication PMC4081115 one finds binding data, which are given here for one substance.

Sequences of proteins named here, by UniProt entry; tags and fusion partners are left off. Residues count along the entry.
UniProt O95831, residues 102-613: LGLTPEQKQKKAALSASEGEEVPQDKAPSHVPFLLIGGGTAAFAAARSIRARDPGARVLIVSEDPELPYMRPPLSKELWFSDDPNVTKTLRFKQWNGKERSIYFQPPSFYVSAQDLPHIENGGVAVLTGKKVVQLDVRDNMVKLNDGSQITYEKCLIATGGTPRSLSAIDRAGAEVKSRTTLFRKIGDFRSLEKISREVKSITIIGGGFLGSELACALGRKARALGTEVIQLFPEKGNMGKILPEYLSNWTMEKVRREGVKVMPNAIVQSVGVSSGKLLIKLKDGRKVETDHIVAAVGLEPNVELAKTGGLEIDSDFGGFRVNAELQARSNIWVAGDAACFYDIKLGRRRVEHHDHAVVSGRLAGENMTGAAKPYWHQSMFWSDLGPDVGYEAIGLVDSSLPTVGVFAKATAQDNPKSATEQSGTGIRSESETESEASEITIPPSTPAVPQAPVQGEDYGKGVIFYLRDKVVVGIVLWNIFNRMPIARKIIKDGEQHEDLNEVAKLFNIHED

The target of this test is T1, FLAG-tagged STK3 (human (cDNA from HEK293 cells)) (UniProt Q13188).
T1 sequence: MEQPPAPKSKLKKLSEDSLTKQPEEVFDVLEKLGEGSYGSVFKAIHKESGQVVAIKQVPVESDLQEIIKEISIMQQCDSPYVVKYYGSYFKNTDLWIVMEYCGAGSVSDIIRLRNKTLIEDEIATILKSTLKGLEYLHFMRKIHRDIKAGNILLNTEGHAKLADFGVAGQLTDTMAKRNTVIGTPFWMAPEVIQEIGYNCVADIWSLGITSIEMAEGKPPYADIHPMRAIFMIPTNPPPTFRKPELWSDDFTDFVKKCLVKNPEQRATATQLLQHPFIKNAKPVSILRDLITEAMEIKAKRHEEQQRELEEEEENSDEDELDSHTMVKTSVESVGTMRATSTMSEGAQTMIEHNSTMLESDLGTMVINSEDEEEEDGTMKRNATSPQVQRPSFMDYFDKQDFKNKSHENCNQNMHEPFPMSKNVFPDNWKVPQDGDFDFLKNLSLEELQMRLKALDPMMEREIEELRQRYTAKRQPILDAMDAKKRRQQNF
Kind of test: co-IP; Caki-1 cells transfected with pcDNA3.1-AIF-V5 or pCMV-Flag-STK3 separately, harvested 12 h later; lysates incubated overnight with V5 or FLAG antibody, protein A beads, western blot.

Results are given in words; binding and its absence hold for the method and conditions named. In cells and extracts the contact can be indirect. Some binding calls cover weakened binding; strength is not graded here. Sequences can lack the tags named with a protein.

Take “Apoptosis-inducing factor (endogenous, Caki-1) (from UniProt O95831 102-613)”: the binding entry was “binds”.
